This note sets out measurements from paper PMC7819943, “Rice protein-binding microarrays: a tool to detect cis-acting elements near promoter regions in rice”.

Chains of the proteins cited; added tags and fusions are not shown.
UniProt Q0JBA9, entry or part of it: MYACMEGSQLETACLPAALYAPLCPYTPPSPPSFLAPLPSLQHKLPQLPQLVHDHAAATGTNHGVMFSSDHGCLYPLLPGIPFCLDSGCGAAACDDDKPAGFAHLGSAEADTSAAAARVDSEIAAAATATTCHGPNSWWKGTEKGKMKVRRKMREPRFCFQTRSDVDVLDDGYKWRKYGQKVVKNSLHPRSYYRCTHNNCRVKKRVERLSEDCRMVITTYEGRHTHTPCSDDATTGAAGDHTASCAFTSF

This is one part of the list.

The target of the experiment is OsWRKY34 (Oryza sativa, UniProt Q0JBA9 1-250). As to the kind of experiment: protein-binding microarray (RPBM); PBS, 2% BSA, 51.3 ng/ul salmon testes DNA, 50 uM zinc acetate, 200 nM TF, 25 C, 1 h; high values mean tight binding. The following applies: protein: recombinant; tags: N-terminal polyhistidine and DsRed monomer fusion (pET32a); label: CyDye5-dUTP incorporated in the synthesized complementary strand; 3' TTTTT single-stranded linker to array surface; dsDNA, one strand shown. The method, boiled down:
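For the binding signal, per-feature fluorescence intensity was read in arbitrary units on an Axon 4000B scanner. Before scanning, a 2% BSA-blocked custom Agilent array made double-stranded with Cy5-dUTP was washed after 1 h at 25 °C with 200 nM protein and 50 µM zinc acetate. The proteins were Ni–NTA-purified transcription factors with N-terminal polyhistidine and DsRed fusions, expressed in E. coli BL21-CodonPlus.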
Take “GTCCGTCTACACCTATCTGGGTCTGAAAGAGTCGACGACACGGAGTCACCTAGTGCAG”: the binding signal is 9150 fluorescence intensity (a.u.). Next, “GCCGACCCGATCCCACCCGAGTCCTTCCCTGTGCGCGCACCGGAGTCACCTAGTGCAG”: 9510 fluorescence intensity (a.u.); “ATCTGAACAACCCCTATATCTCGATTGCCCATTGAATTTCCGGAGTCACCTAGTGCAG”: 8160 fluorescence intensity (a.u.). Consider “CAACGTACACTCTATACTATGCCTAGTTTAACAACACAATCGGAGTCACCTAGTGCAG”, for which the binding signal was 9010 fluorescence intensity (a.u.).

Take “AATTGCCGCACTAACTCCATTGTTCATCTCTAGTTTTACTCGGAGTCACCTAGTGCAG”: the binding signal is 10300 fluorescence intensity (a.u.). Next, “CCTCCACCATTCAATTTTCCCACCTACTTTCACTTATTATCGGAGTCACCTAGTGCAG”: 13900 fluorescence intensity (a.u.). Next, “CCAAATGTGGAGATTTGGGGTGGGCGCGCAAGGTGTTTGACGGAGTCACCTAGTGCAG”: 8050 fluorescence intensity (a.u.); “ATGTCGCCTACCATTATCATCTGGGTTTGGCCTGTTAGTGCGGAGTCACCTAGTGCAG”: 10000 fluorescence intensity (a.u.); “CACAACTCCAGCGACCGCCCACCCGCCATCCTGCCTGCCGCGGAGTCACCTAGTGCAG”: 8640 fluorescence intensity (a.u.).

Take “TCAGCCAAATTCTCTGTACGGCCAGCAGCTGCGCATCTCACGGAGTCACCTAGTGCAG”: the binding signal is 8440 fluorescence intensity (a.u.). The result for “ACCGTGCTGTTGTTACTTGTTCTTGTTCTCACAGTATAAGCGGAGTCACCTAGTGCAG” reads 12400 fluorescence intensity (a.u.). The result for “TTAGTACTACTGGTTCTTCTAGTAACAGCATACATTCATTCGGAGTCACCTAGTGCAG” reads 8450 fluorescence intensity (a.u.); that for “TTAAACTGTATACCGTCGCTCGCGTCGCGCGCCGTTGACGCGGAGTCACCTAGTGCAG”, 9730 fluorescence intensity (a.u.); that for “TGTTTTTCTACTTATTTTCCATCCGCTTGTTCCTAGTTATCGGAGTCACCTAGTGCAG”, 8030 fluorescence intensity (a.u.). Next, “GATCTCCGCCTCCGACTTTGCTTCGATCTAATCTTCTTTCCGGAGTCACCTAGTGCAG”: 9450 fluorescence intensity (a.u.). Take “GTCGATCGGGAATTTCTGTGACAGTTTTCACCCCTTGAAACGGAGTCACCTAGTGCAG”: the binding signal was 8190 fluorescence intensity (a.u.). Next, “GCCAACAACTCAGTCCCTAACGCCGCCGCCAATCTCGCCGCGGAGTCACCTAGTGCAG”: 8390 fluorescence intensity (a.u.); “TCGCGGCCTCGCGCTCACCGCCGCCGGAATCCGGCTGACCCGGAGTCACCTAGTGCAG”: 8580 fluorescence intensity (a.u.). Take “GTTTACTTGTACCCACACCCACTGTCTCGTATTCTATTCCCGGAGTCACCTAGTGCAG”: the binding signal is 11200 fluorescence intensity (a.u.).

Take “CTGCTAGAATGTTTGTGGTCTGCCTTGTCCGTCCTTCATTCGGAGTCACCTAGTGCAG”: the binding signal is 9000 fluorescence intensity (a.u.).

With “ATGAGCCCTTTGATTCTGTCAACCGTGTGCAGCATTGTTTCGGAGTCACCTAGTGCAG”, the binding signal was 8900 fluorescence intensity (a.u.). The result for “AAACGCCCTGACCGACTAACCCTCGCCACCGAGCAAACTCCGGAGTCACCTAGTGCAG” reads 8700 fluorescence intensity (a.u.). As for “ATGCTCATTCCATTATTTTGCATAGGATTTCAATCCTATACGGAGTCACCTAGTGCAG”, the binding signal was 9850 fluorescence intensity (a.u.). The result for “TCCCATTGTAGGGCACGATCTCCGACTCTCCGTCTTCTACCGGAGTCACCTAGTGCAG” reads 14000 fluorescence intensity (a.u.); that for “AAATGCAGTTCCAAACATGGGCTGGGTTACACCAAATCCTCGGAGTCACCTAGTGCAG”, 8790 fluorescence intensity (a.u.); that for “TTTCTCCTTTTTGAACTTCTCTTTGCACTTAAAGCTTTATCGGAGTCACCTAGTGCAG”, 11500 fluorescence intensity (a.u.). For the sequence “CTCTTCTTCTTCCACGCGCCAGTCTCCTCCAAACTCGTCGCGGAGTCACCTAGTGCAG”, the binding signal is 8780 fluorescence intensity (a.u.).

As to “ACGTACGAACAAGGCAACAGCACACTCCAGTACTCCACATCGGAGTCACCTAGTGCAG”, the binding signal is 8990 fluorescence intensity (a.u.). As to “CATCATAGATCGTTCACACGTCTCAACATCCCAAATTATCCGGAGTCACCTAGTGCAG”, the binding signal is 9520 fluorescence intensity (a.u.). Next, “CCTCGCACCTCATGTGTTTGCTGCCTGGAGCAAAGGATTTCGGAGTCACCTAGTGCAG”: 8900 fluorescence intensity (a.u.); “CTCCGTATCTGGTTTTGCGGTTAAGCGACATGAATAAAACCGGAGTCACCTAGTGCAG”: 9970 fluorescence intensity (a.u.). For the sequence “TAACCGTCAGCCCCGTCCTGTTCCCTAACAAATCCACCACCGGAGTCACCTAGTGCAG”, the binding signal is 9540 fluorescence intensity (a.u.). With “CTTTCCTGTACTATTTTACTGTCCGATTTACAACATGTGACGGAGTCACCTAGTGCAG”, the binding signal was 12900 fluorescence intensity (a.u.). With “ACCCATATGGACATGCATGTCCATCCTGCCAGGACGCAGACGGAGTCACCTAGTGCAG”, the binding signal was 8610 fluorescence intensity (a.u.). With “GTACTCCTATCCTGCTGGATTCACTGACACTAATGACTCGCGGAGTCACCTAGTGCAG”, the binding signal was 10700 fluorescence intensity (a.u.). Next, “TCCCTCGTTTTTCACGTGCACGCTTTTCAAACTGTTAAATCGGAGTCACCTAGTGCAG”: 9020 fluorescence intensity (a.u.); “TCCCCGCGCATGTGAACTCAAACCCATCCGATCGGTTGACCGGAGTCACCTAGTGCAG”: 12800 fluorescence intensity (a.u.).

As to “GGTCCTAATTAATTATTTGCATGCATCCATGCCTTATATTCGGAGTCACCTAGTGCAG”, the binding signal is 8390 fluorescence intensity (a.u.).

As to “GATTCAACATAATATTTTACGAAGTTGTGTTTCGGCGCTTCGGAGTCACCTAGTGCAG”, the binding signal is 8610 fluorescence intensity (a.u.). Next, “GCATTTTATAGTACAGCCAGTTGTTGTTGAGCTTTCAGTCCGGAGTCACCTAGTGCAG”: 11700 fluorescence intensity (a.u.); “CTACCAACCGTGGACTAGTATTACCTGCTGACCAACCGACCGGAGTCACCTAGTGCAG”: 9740 fluorescence intensity (a.u.). The result for “ATGAAAGGTGTACATGATGTGTTCCATATTTCCATGCTGACGGAGTCACCTAGTGCAG” reads 8150 fluorescence intensity (a.u.).
